Measured values reported in PubChem BioAssay AID1487 (National Center for Advancing Translational Sciences (NCATS), 2009).
This is one part of the list. Further columns of the screen follow, without active or inactive calls. Most of these compounds were active or inconclusive in the main read-out, so they are no random draw. Potencies come from curve fits of mixed quality, noted in brackets.

Assay: qHTS Assay for Modulators of Lamin A Splicing
Settings: HeLa LMNA splicing GFP/RFP minigene ratio, 48 h
In short: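 S3 HeLa stable clones carrying a lamin A-EGFP splicing minigene plus DsRed2 were seeded at 600 cells/well in Opti-MEM with 2% FBS, pin-dosed and incubated 48 h at 37°C. Acumen cytometry (488 nm) gave the GFP/RFP total-intensity ratio.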

[1] = measured here: RFP viability control channel
[2] = measured here: GFP splicing reporter channel

SMILES	AC50 [1]	AC50 [2]
COc1ccc(OC)c(NC(=S)N(CCc2c(C)[nH]c3ccccc23)Cc2cccs2)c1	12.6 µM [rising, partial curve, poor fit]	–
CC1CCN(C(=O)C2CCN(C(=O)c3cc4sccc4n3Cc3ccc(F)cc3)CC2)CC1	5.01 µM [rising, full curve]	–
Cn1c(C(O)C(O)c2ccccc2)nc2ccccc21 (stereo unspecified)	0.00316 µM [falling, full curve, poor fit]	–
O=C(Nc1ccc2c(c1)nc1n2CCSC1)c1ccco1	0.00316 µM [rising, full curve, poor fit]	0.158 µM [rising, full curve, poor fit]
CCCOC(=O)c1ccc(O)cc1	–	8.91 µM [rising, partial curve, poor fit]
O=C(CSc1ncnc2nc[nH]c12)N1CCN(c2ccc(Cl)cc2)CC1	10 µM [rising, partial curve]	8.91 µM [rising, partial curve]
Cc1ccc(-c2oc3ccccc3c(=O)c2O)cc1	35.5 µM [rising, single point]	22.4 µM [rising, single point]
CC(C)N(Cc1nc(-c2ccccc2)no1)C(=O)c1ccc(Cl)cc1	12.6 µM [rising, single point]	–
Cc1ccc(C)c(NC(=O)C(c2ccccc2)N2Cc3ccccc3C2=O)c1 (stereo unspecified)	0.02 µM [falling, full curve, poor fit]	0.01 µM [falling, full curve, poor fit]
CN(C)CCNC(=O)c1sc2cccc(F)c2c1Cl	–	2 µM [rising, partial curve, poor fit]
O=C1SCC(c2ccc(Cl)cc2Cl)=NN1Cc1nnc(-c2ccccc2)o1	14.1 µM [rising, partial curve, poor fit]	–
CC(=O)N1CCCc2cc(S(=O)(=O)N3CCN(c4cccc(C(F)(F)F)c4)CC3)ccc21	15.8 µM [falling, partial curve, poor fit]	11.2 µM [falling, partial curve, poor fit]
Cc1ccc(-c2cc(C(F)(F)F)nn2-c2ccc(S(N)(=O)=O)cc2)cc1	35.5 µM [rising, single point]	–
Cc1ccc2cc(C#N)c(NCCNC(=O)C3CC3)nc2c1C	12.6 µM [rising, partial curve]	–
Cn1cc(/C=N/NC(=O)c2cccc([N+](=O)[O-])c2)c2ccccc21	7.08 µM [rising, partial curve, poor fit]	–
O=C(N/N=C/c1cccs1)c1n[nH]c2c1CCC2	8.91 µM [rising, partial curve, poor fit]	–
COc1cccc(NS(=O)(=O)c2ccc3c(c2)CCCN3C(=O)C2CCC2)c1	–	5.62 µM [falling, partial curve, poor fit]
CCOC(=O)c1cnc2ccc(OC)cc2c1Nc1ccc2c(c1)OCCO2	–	12.6 µM [rising, single point]
COc1ccc2[nH]c3c(=O)n(CCCCC(=O)N4CCC(C(N)=O)CC4)c(=S)[nH]c3c2c1	25.1 µM [falling, single point]	–
COc1ccc(-c2nn(-c3cccc([N+](=O)[O-])c3)c3c2cnc2cc4c(cc23)OCO4)cc1	15.8 µM [rising, single point]	0.178 µM [rising, partial curve]
Cc1cc(C)c(C2=CSC3=NS(=O)(=O)CCN23)c(C)c1	0.0631 µM [falling, full curve, poor fit]	0.0251 µM [falling, full curve, poor fit]
CSc1ncc(CN2CCN(CCC(C)C)C(CCO)C2)cn1 (stereo unspecified)	2.24 µM [falling, full curve]	5.01 µM [falling, full curve, poor fit]
CC(=O)Nc1ccc(S(=O)(=O)Nc2cccc(-c3nc4ccccc4o3)c2)cc1	12.6 µM [rising, single point]	–
CCC(=O)Nc1sc2c(c1C(=O)Nc1cccc(C)c1)CCCC2	6.31 µM [rising, single point]	–
CCNc1ncc2nc(-c3ccc(F)cc3)c(=O)n(C)c2n1	14.1 µM [falling, partial curve]	12.6 µM [falling, partial curve, poor fit]
O=C(Nc1ccc(S(=O)(=O)N2CCCCC2)cc1)c1ccncc1	14.1 µM [rising, partial curve]	–

3 compounds out of the list, arranged by molecular weight, low to high.
SMILES	AC50 [1]	AC50 [2]
CCCOC(=O)c1ccc(O)cc1	–	8.91 µM [rising, partial curve, poor fit]
CC(C)N(Cc1nc(-c2ccccc2)no1)C(=O)c1ccc(Cl)cc1	12.6 µM [rising, single point]	–
CCOC(=O)c1cnc2ccc(OC)cc2c1Nc1ccc2c(c1)OCCO2	–	12.6 µM [rising, single point]

An excerpt from further up:
SMILES	AC50 [1]	AC50 [2]
Cn1cc(/C=N/NC(=O)c2cccc([N+](=O)[O-])c2)c2ccccc21	7.08 µM [rising, partial curve, poor fit]	–
O=C(N/N=C/c1cccs1)c1n[nH]c2c1CCC2	8.91 µM [rising, partial curve, poor fit]	–

(cont.)

SMILES	AC50 [1]	AC50 [2]
CC(C)CC(=O)NCc1ccc2[nH]c3c(c2c1)CCCC3	–	6.31 µM [falling, single point]
CC1(C)Cc2c(c(-c3ccccc3)[nH]c(=O)c2C#N)CO1	7.94 µM [rising, partial curve]	7.94 µM [rising, partial curve, poor fit]
CC(C)(C)c1ccc(C(=O)NC(Cc2c[nH]c3ccccc23)C(=O)OCC(=O)c2ccc(Cl)cc2)cc1 (stereo unspecified)	0.282 µM [falling, full curve, poor fit]	0.355 µM [falling, full curve, poor fit]
Cc1ccc(NC(=O)c2ccc(Cn3cc([N+](=O)[O-])cn3)cc2)c(C)c1	1.41 µM [rising, partial curve]	8.91 µM [rising, partial curve, poor fit]
COc1cc(OC)cc(-c2cc3nc(C)c(CCC(=O)NC(C)CCc4ccco4)c(C)n3n2)c1 (stereo unspecified)	15.8 µM [rising, single point]	–
N=c1c2c(n(Cc3ccc(Cl)cc3)c3c1CCC3)CCC2	14.1 µM [rising, partial curve]	–
CCc1ccc(NC(=O)CCNS(=O)(=O)c2ccc3c(c2)CCCC(=O)N3)cc1	0.708 µM [rising, full curve]	–
CCOc1ccc2nc(NC(=O)CN3CCC(n4nnc5cc(F)ccc54)CC3)sc2c1	14.1 µM [rising, single point]	11.2 µM [rising, single point]
CCOC(=O)N1CCN(C(=O)c2ccccc2N(Cc2ccccc2)S(=O)(=O)c2ccc(OC)cc2)CC1	25.1 µM [falling, single point]	8.91 µM [falling, partial curve, poor fit]
NC(=S)N/N=C/c1ccccc1OCCSc1ccc(Cl)cc1	0.282 µM [falling, partial curve, poor fit]	3.55 µM [falling, partial curve, poor fit]
CCOC(=O)c1scc(-c2ccccc2)c1S(=O)(=O)N1CCN(c2ccccc2OC)CC1	3.98 µM [rising, full curve]	–
CC(=O)c1cccc(NS(=O)(=O)c2ccc(N/C=C/C(=O)c3ccc(F)cc3)cc2)c1	5.01 µM [rising, partial curve]	–
O=C(Nc1sc2c(c1C(=O)O)CCCCC2)c1ccco1	31.6 µM [rising, single point]	14.1 µM [rising, single point]
CCOC(=O)c1cc(-c2ccccc2)n(CCC(=O)Nc2nc3c(C)cccc3s2)c1C	0.02 µM [falling, full curve, poor fit]	0.02 µM [falling, full curve, poor fit]
CCN(CC)CCn1c(=N)n(CCOc2ccccc2)c2ccccc21	20 µM [rising, single point]	12.6 µM [rising, partial curve]
Cc1ccccc1NS(=O)(=O)c1ccc2[nH]c3c(c2c1)CCCCC3	35.5 µM [falling, partial curve]	22.4 µM [falling, partial curve, poor fit]
Cc1ccc(C(=O)Nc2ccc(O)cc2C(=O)O)cc1C	0.158 µM [falling, full curve]	11.2 µM [falling, partial curve, poor fit]
CCc1ccc(-n2c(=O)c3c(C)c(C(=O)N(C)C)sc3n(Cc3ccccc3F)c2=O)cc1	35.5 µM [falling, single point]	–
CCC(=NCc1ccc(Cl)c(Cl)c1)c1nc(-c2ccco2)oc1O	25.1 µM [rising, single point]	20 µM [rising, single point]
CC(C)OC(=O)CSc1nnc2n1C(C)(C)Cc1ccccc1-2	12.6 µM [rising, single point]	–
CCN1CCN(c2cc(-c3ccccc3)nc3cc(-c4cccc(F)c4)nn23)CC1	25.1 µM [rising, single point]	–
Cn1ncc2c(Nc3ccc(-c4ccccc4)cc3)ncnc21	20 µM [rising, single point]	14.1 µM [rising, single point]
COc1ccc2c(c1)[nH]c1c(=O)n(Cc3ccco3)cnc12	12.6 µM [rising, partial curve, poor fit]	14.1 µM [rising, partial curve, poor fit]
Cc1cnc(=O)[nH]c1SCC(=O)Nc1nc2ccccc2s1	35.5 µM [rising, single point]	–
CCN(CC)c1ccc(/C=C2/SC(=O)N(C(C)C)C2=O)o1	–	35.5 µM [rising, single point]
COc1cc(NC(=O)c2cccc(C)c2)c(OC)cc1NC(=O)CN1CCCCC1	20 µM [rising, partial curve, poor fit]	35.5 µM [rising, partial curve, poor fit]
